{"sequences": {"note": "Amino acid sequences for entries named in this document (tags omitted). Residues count along the entry.", "UniProt P63044, residues 2-116": "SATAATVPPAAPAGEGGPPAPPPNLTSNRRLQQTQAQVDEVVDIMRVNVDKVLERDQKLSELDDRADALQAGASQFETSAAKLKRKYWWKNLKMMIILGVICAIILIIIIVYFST", "UniProt P05067, residues 672-713": "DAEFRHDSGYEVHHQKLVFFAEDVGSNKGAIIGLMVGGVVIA", "UniProt Q62277": "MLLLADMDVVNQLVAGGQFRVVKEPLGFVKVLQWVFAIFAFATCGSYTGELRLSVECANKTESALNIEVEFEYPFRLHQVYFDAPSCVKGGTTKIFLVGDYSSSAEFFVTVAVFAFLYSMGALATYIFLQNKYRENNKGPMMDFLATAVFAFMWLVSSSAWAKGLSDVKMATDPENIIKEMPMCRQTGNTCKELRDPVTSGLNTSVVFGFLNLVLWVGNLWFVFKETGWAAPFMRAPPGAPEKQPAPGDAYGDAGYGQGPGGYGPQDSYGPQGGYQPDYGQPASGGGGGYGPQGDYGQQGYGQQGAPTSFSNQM", "UniProt Q8BGN8": "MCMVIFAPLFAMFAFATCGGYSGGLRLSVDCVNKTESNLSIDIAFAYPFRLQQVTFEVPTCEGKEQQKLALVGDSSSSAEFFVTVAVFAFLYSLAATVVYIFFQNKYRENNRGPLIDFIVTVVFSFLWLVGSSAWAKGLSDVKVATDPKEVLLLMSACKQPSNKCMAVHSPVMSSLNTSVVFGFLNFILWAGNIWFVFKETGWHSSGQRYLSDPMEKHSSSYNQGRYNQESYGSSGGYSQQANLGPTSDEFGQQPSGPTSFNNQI"}, "source": "patent US20170183388A1", "key": {"[1]": {"biological_target": "Mouse VAMP2 (endogenous, from brain synaptosomes or cultured neurons) (mouse) (UniProt P63044)", "assay": "immunoprecipitation with anti-VAMP2 antibody from SYP -/- whole brain synaptosomes, western blot"}, "[2]": {"biological_target": "Mouse VAMP2 (endogenous, from brain synaptosomes or cultured neurons) (mouse) (UniProt P63044)", "assay": "anti-VAMP2 immunoprecipitation from SYP -/- mouse whole brain synaptosomes, western blot"}, "BioPure recombinant Aβ42": {"biological_target": "BioPure recombinant Aβ42 (UniProt P05067)", "assay": "pull-down of whole brain synaptosome proteins (B6 WT or SYP -/- KO) on Aβ42 coupled to AminoLink resin, western blot [A]"}, "[3]": {"biological_target": "Mouse synaptophysin (endogenous, from brain synaptosomes or cultured neurons) (mouse) (UniProt Q62277)", "assay": "co-immunoprecipitation with anti-Syp antibody from murine hippocampal neurons, immunoblot for Syp and Syb, with or without 50 nM Aβ(1-42) overnight"}, "[4]": {"biological_target": "Mouse synaptophysin (endogenous, from brain synaptosomes or cultured neurons) (mouse) (UniProt Q62277)", "assay": "co-immunoprecipitation of SYP from cortical neurons treated with Aβ42 or scrambled peptide, immunoblot for VAMP2, densitometry [E]"}}, "note": "Results are given in words; binding and its absence hold for the method and conditions named. For some assays here: Binding seen in cells or lysates may run through a third protein. Some results given as binding are weak or reduced against the parent protein; the word gives no strength.", "data": [{"substance": "Mouse synaptoporin (endogenous, from brain synaptosomes) (from UniProt Q8BGN8 1-265)", "values": [{"measurement": "binding", "setting": "[1]", "value": "binds"}, {"measurement": "binding", "setting": "[2]", "value": "binds"}]}, {"substance": "Mouse synaptophysin (endogenous, from brain synaptosomes or cultured neurons) (from UniProt Q62277 1-314)", "values": [{"measurement": "binding", "setting": "BioPure recombinant Aβ42", "value": "binds"}]}, {"substance": "Mouse VAMP2 (endogenous, from brain synaptosomes or cultured neurons) (from UniProt P63044 2-116)", "values": [{"measurement": "binding", "setting": "[3]", "value": "binds"}, {"measurement": "binding", "setting": "[4]", "value": "binds"}]}]}
